Measurements published in publication PMC7475176.
Results are given in words; binding and its absence hold for the method and conditions named. Binding calls can cover weak binding; strength is not graded here.

Molecular target: BD-GmVQ58 (soybean (Glycine max)) (UniProt I1M649)
Assay: two-hybrid; Matchmaker Gold Yeast Two-Hybrid System; BD-GmVQ58 (pGBKT7) with AD-GmWRKY32 (pGADT7); double-dropout (-Leu/-Trp) then quadruple-dropout (-Leu/-Trp/-His/-Ade) plates with X-alpha-Gal

binding: binds
Substance: AD-GmWRKY32 (from UniProt I1JEC8)
